Results as given in patent publication US5965524A, “Analogs of viscosin and uses thereof” (Peptide Technologies Corporation, priority 1994, dated 1999).
Not every detail of the peptide structures is certain; ends, links or a residue may be inferred.

Tests used:
Leishmania donovani [1] = assay: Lysis of L. donovani parasites; type: cell-based; details: parasites 1x10^8 per mL in HBSS; examined at 4 hr and after overnight at 27° C.
Leishmania donovani [2] = assay: Effect on growth of L. donovani in serum-containing and serum-free medium; type: cell-based; details: cell densities at 21 hr, in some cases 43 hr, 27° C.; for Lowest concentration with activity against L. Donovani: Growth: serum-containing M199 medium; for Lowest concentration with activity against L. Donovani: Growth (Serum Free Medium): serum-free REIII medium
Experimental: For the purpose of determining the effect of the compounds on the growth of parasite in serum-containing and serum-free medium, the parasites were harvested from culture medium M199+5% FBS, washed twice in HBSS and resuspended in same at 1×10^8 /mL. Serum-containing M199 ans serum-free REIII media were filtered and sterilized prior to use. The washed cells were added to achieve an initial concentration of 1.66×10^6 cells/mL. Cell densities were determined by hemacytometry at 21 hr, and in some cases at 43 hr of incubation at 27° C.

CCCCCCC[C@@H](O)CC(=O)N[C@@H](CC(C)C)C(=O)N[C@H](CCC(=O)O)C(=O)N[C@@H](C(=O)N[C@@H](C(=O)N[C@@H](CC(C)C)C(=O)N[C@H](CO)C(=O)N[C@@H](CC(C)C)C(=O)N[C@H](CO)C(=O)N[C@H](C(=O)O)[C@@H](C)CC)C(C)C)[C@@H](C)O [Compound 5, Viscosic Acid]
no effect: Lowest concentration with activity against L. Donovani: Lysis (Leishmania donovani [1]) | Lowest concentration with activity against L. Donovani: Growth (Leishmania donovani [2]) | Lowest concentration with activity against L. Donovani: Growth (Serum Free Medium) (Leishmania donovani [2])

CCCCCCC[C@@H](O)CC(=O)N[C@@H](CC(C)C)C(=O)N[C@H](CCC(=O)O)C(=O)N[C@@H](C(=O)N[C@@H](C(=O)N[C@@H](CC(C)C)C(=O)N[C@H](CO)C(=O)N[C@@H](CC(C)C)C(=O)N[C@H](CO)C(=O)N[C@H](C(=O)O)[C@@H](C)CC)C(C)C)[C@H](C)O [Compound 6, [D-Thr^7]-Viscosic Acid]
no effect: Lowest concentration with activity against L. Donovani: Lysis (Leishmania donovani [1]) | Lowest concentration with activity against L. Donovani: Growth (Leishmania donovani [2]) | Lowest concentration with activity against L. Donovani: Growth (Serum Free Medium) (Leishmania donovani [2])
